A word on the IC50: it is the midpoint of a concentration-inhibition curve.

In this experiment the test system is KB-HTI-4.0. Kind of experiment: Cell survival assay, KB-3-1 line made resistant to Example 129 (KB-HTI-4.0). The class given is cell-based. As to conditions: Homo sapiens, KB 3-1, read-out: KB-HTI-4.0 IC50, nM. An excerpt: Cells lines with previously known mechanisms of resistance. […] Res. 8: 207-218,1996); KB-3-1 (parental derived from an epidermoid carcinoma), KB-8.5, KB-V1 (Akiyama S-I, Fojo A, Hanover J A, Pastan I, Gottesman M M. Isolation and genetic characterization of human KB cell lines resistant to multiple drugs. Somatic Cell Mol. Gen., 11: 117-126,1985; Shen D-W, Cardarelli C, Hwang J, Cornwell M, Richert N, Ishii S, Pastan I, Gottesman MM. […] J. Biol. Chem., 261: 7762-7770, 1986); and HL-60 (parental derived from human leukemia) and HL60/AR (McGrath T., Center M. S. Adriamycin resistance in HL60 cells in the absence of detectable P-glycoprotein. Biochem. Res. Commun., 145:1171-1176,1987); A549 and A549.EpoB40 (He L., Yang C.-P.H., Horwitz S. B. Mutations in p-tubulin map to domains involved in regulation of microtubule stability in epothilone-resistant cell lines. Molecular Cancer Therapeutics. 1: 3-10, 2001). HCT-15 human colon carcinoma and DLD-1 human colon carcinoma are obtained from American Tissue Culture Collection. The MX-1W carcinoma is a Wyeth variant orginally obtained as MX-1 breast carcinoma from the National Cancer Institute. Cell lines selected for resistance to Representative Example 129. […]
2.2. […] Absorbance is read on a Victor V multi-label plate reader (Perkin Elmer, Gaithersburg, Md.). […]

`COc1cc2c(c(OC)c1OC)-c1ccc(OC)c(=O)cc1[C@@H](NC(C)=O)CC2` [colchicine, reference compound]: the IC50 was determined as 22.35 ± 0.07 nM.

The record behind these values is US20040121965A1, “Method of treating resistant tumors” (Wyeth Holdings Corporation, priority 2002, published 2004).
